In PMC7819943, “Rice protein-binding microarrays: a tool to detect cis-acting elements near promoter regions in rice”:
The list shows a part of the results.

Target: T1, OsSMF1 (Oryza sativa, UniProt Q6ZLB0 1-436)
T1 sequence: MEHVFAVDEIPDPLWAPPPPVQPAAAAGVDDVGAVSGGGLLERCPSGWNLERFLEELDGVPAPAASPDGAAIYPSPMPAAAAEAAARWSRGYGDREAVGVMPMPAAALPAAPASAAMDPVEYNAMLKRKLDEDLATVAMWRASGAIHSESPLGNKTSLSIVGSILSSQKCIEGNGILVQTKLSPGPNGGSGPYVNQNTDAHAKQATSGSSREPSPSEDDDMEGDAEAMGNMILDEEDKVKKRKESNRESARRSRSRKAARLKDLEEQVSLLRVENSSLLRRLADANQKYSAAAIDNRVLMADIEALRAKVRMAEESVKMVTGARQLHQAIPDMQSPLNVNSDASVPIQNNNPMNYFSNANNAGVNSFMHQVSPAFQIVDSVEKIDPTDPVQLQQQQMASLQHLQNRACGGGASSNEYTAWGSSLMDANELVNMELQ
Test: protein-binding microarray (RPBM); PBS, 2% BSA, 51.3 ng/ul salmon testes DNA, 50 uM zinc acetate, 200 nM TF, 25 C, 1 h; high values mean tight binding
Conditions: protein: recombinant; tags: N-terminal polyhistidine and DsRed monomer fusion (pET32a); chain copies: 2; label: CyDye5-dUTP incorporated in the synthesized complementary strand; 3' TTTTT single-stranded linker to array surface; dsDNA, one strand shown
Method in brief: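 The binding signal is fluorescence intensity per array feature (arbitrary units). Readings came from an Axon 4000B scanner after a washed, 2% BSA-blocked, double-stranded custom Agilent array had been incubated for 1 h at 25 °C with 200 nM protein and 50 µM zinc acetate. The protein was a Ni–NTA-purified transcription factor fused N-terminally to polyhistidine and DsRed, expressed in E. coli BL21-CodonPlus.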

Row | Sequence | binding signal
1 | GTGTTGGGCCGATAATTTCCTGCACGGAATTTCGTCCCGTCGGAGTCACCTAGTGCAG | 5510 fluorescence intensity (a.u.)
2 | CACCACACGTCACGCTTCCACCTCCACCTCCACCTCACTGCGGAGTCACCTAGTGCAG | 18200 fluorescence intensity (a.u.)
3 | CTGATCTGCTGATGCGAATGCGAGCAGTAATCAACAGCGTCGGAGTCACCTAGTGCAG | 3240 fluorescence intensity (a.u.)
4 | AACATTGAGCCACGTCATCAACAAAATATGGACCGTCCGACGGAGTCACCTAGTGCAG | 21700 fluorescence intensity (a.u.)
5 | CACCGCAGCTTCTCCAATCCGTCACTTTCCCCATCCCTCCCGGAGTCACCTAGTGCAG | 3240 fluorescence intensity (a.u.)
6 | GCATTCCCACCTTCCGTCGTCATCTTCACCACCGGCGGTGCGGAGTCACCTAGTGCAG | 3340 fluorescence intensity (a.u.)
7 | CACAAACTCGCATAACCGCCCCGCCGCGTGTCGTCTCCCCCGGAGTCACCTAGTGCAG | 5980 fluorescence intensity (a.u.)
8 | ACGCCCGATCTCTGCAATTCGATCGCTTGCATCTGCAAAGCGGAGTCACCTAGTGCAG | 3920 fluorescence intensity (a.u.)
9 | GAGGCAGTGAACCGGAATAGGCCACACTTGTCGCGATATTCGGAGTCACCTAGTGCAG | 3250 fluorescence intensity (a.u.)
10 | CTTGCAAACGCAACCAACAACCCATTCCCATGCAATATATCGGAGTCACCTAGTGCAG | 21900 fluorescence intensity (a.u.)
11 | CGTGACGGCGTGCCATCTACTACCTGAGAAGAAACACATACGGAGTCACCTAGTGCAG | 31800 fluorescence intensity (a.u.)
12 | CAGGGCCTACGTGCATGGGTGACTCACGCAGCCTTTCTGTCGGAGTCACCTAGTGCAG | 11500 fluorescence intensity (a.u.)
13 | GGTCCCCTGCGCGTCGCCACGTTGCCAACCTCCTCCAGGGCGGAGTCACCTAGTGCAG | 10200 fluorescence intensity (a.u.)
14 | GTATTGTGGGTTAGGGATGTCGATTATACTCGACGTAAAGCGGAGTCACCTAGTGCAG | 3830 fluorescence intensity (a.u.)
15 | ATCGGGAGAGATGGAAAATAGAGTAGTCCCTGACACGTGGCGGAGTCACCTAGTGCAG | 24300 fluorescence intensity (a.u.)
16 | GTCCAGATACTAAGGTGTATGGTATTATCGGAAAACCTGTCGGAGTCACCTAGTGCAG | 5550 fluorescence intensity (a.u.)
17 | GCTCGTAGTCTACTCCACCCCGCTTGTCGACGTGCGCTGGCGGAGTCACCTAGTGCAG | 3790 fluorescence intensity (a.u.)
18 | ACATACGAGAGATCCCATATGCTGTTTATTGCTGCTGCCACGGAGTCACCTAGTGCAG | 3430 fluorescence intensity (a.u.)
19 | ATGTTTATATCGTCTCAACTGACTAGGGAATTTGGAGATGCGGAGTCACCTAGTGCAG | 3750 fluorescence intensity (a.u.)
20 | TCTGCCAGGTGGTGGCCTCAATGATGGCGAGCCATGGCCACGGAGTCACCTAGTGCAG | 3720 fluorescence intensity (a.u.)
21 | CAAATCCACCCCTGGGCTCCGGCTGGATGACGTGCCAAGCCGGAGTCACCTAGTGCAG | 10500 fluorescence intensity (a.u.)
22 | TTACCAGAGTTACTCCGTTTTGCTTGTACAGTTTCCGGTTCGGAGTCACCTAGTGCAG | 3260 fluorescence intensity (a.u.)
23 | GTTTAATCGTGGTCTTGTCTACGTGGCACGCAACATGGACCGGAGTCACCTAGTGCAG | 25000 fluorescence intensity (a.u.)
24 | CGTGATCAATTCGCCTCATGCTGGCGTGACGCGGACCGAGCGGAGTCACCTAGTGCAG | 6720 fluorescence intensity (a.u.)
25 | CTTTCTTTTCCTTTCCTTCTCTTCTCTTTATCTCAGCGATCGGAGTCACCTAGTGCAG | 15100 fluorescence intensity (a.u.)
26 | TCGCCGCAGTCGGGCACCGCCGCCCCGTCATCGCCGCGGCCGGAGTCACCTAGTGCAG | 7140 fluorescence intensity (a.u.)
27 | TAAGCTAGGAGAGATTGTGCGAATCATCTAGCTCAAAATTCGGAGTCACCTAGTGCAG | 3910 fluorescence intensity (a.u.)

Exported in CSV form: part of the list above
Row,Sequence,binding signal
1,GTGTTGGGCCGATAATTTCCTGCACGGAATTTCGTCCCGTCGGAGTCACCTAGTGCAG,5510 fluorescence intensity (a.u.)
3,CTGATCTGCTGATGCGAATGCGAGCAGTAATCAACAGCGTCGGAGTCACCTAGTGCAG,3240 fluorescence intensity (a.u.)
6,GCATTCCCACCTTCCGTCGTCATCTTCACCACCGGCGGTGCGGAGTCACCTAGTGCAG,3340 fluorescence intensity (a.u.)
8,ACGCCCGATCTCTGCAATTCGATCGCTTGCATCTGCAAAGCGGAGTCACCTAGTGCAG,3920 fluorescence intensity (a.u.)
9,GAGGCAGTGAACCGGAATAGGCCACACTTGTCGCGATATTCGGAGTCACCTAGTGCAG,3250 fluorescence intensity (a.u.)
11,CGTGACGGCGTGCCATCTACTACCTGAGAAGAAACACATACGGAGTCACCTAGTGCAG,31800 fluorescence intensity (a.u.)
15,ATCGGGAGAGATGGAAAATAGAGTAGTCCCTGACACGTGGCGGAGTCACCTAGTGCAG,24300 fluorescence intensity (a.u.)
18,ACATACGAGAGATCCCATATGCTGTTTATTGCTGCTGCCACGGAGTCACCTAGTGCAG,3430 fluorescence intensity (a.u.)
23,GTTTAATCGTGGTCTTGTCTACGTGGCACGCAACATGGACCGGAGTCACCTAGTGCAG,25000 fluorescence intensity (a.u.)
24,CGTGATCAATTCGCCTCATGCTGGCGTGACGCGGACCGAGCGGAGTCACCTAGTGCAG,6720 fluorescence intensity (a.u.)

Further records follow.

Row | Sequence | binding signal
28 | AGCTTGTTTATAGGAGTGAGTGTGCACGTATGTGTAGGCGCGGAGTCACCTAGTGCAG | 4180 fluorescence intensity (a.u.)
29 | CCAACGTTTCAATCGCTTGTTCGATCAGATTAACGGCGTTCGGAGTCACCTAGTGCAG | 38500 fluorescence intensity (a.u.)
30 | GAGAGAATAGTGTCTTCATAATAGATGAAGAATAAATATGCGGAGTCACCTAGTGCAG | 4150 fluorescence intensity (a.u.)
31 | TTGAAAGCGGTTCCTCTGATGTAACATATCGTGACATGGTCGGAGTCACCTAGTGCAG | 4110 fluorescence intensity (a.u.)
32 | GAAGCCACTCCGCGCGCAGCTGGTGCTCAGGAGCGTCGATCGGAGTCACCTAGTGCAG | 6620 fluorescence intensity (a.u.)
33 | TCTATGGTGTCTCTAGAACCATCCTTCTTTCCTCTTGCTCCGGAGTCACCTAGTGCAG | 21200 fluorescence intensity (a.u.)
34 | ACCGAGTAGATCACTTCCGTGCAAGTTGGTTGACAAGTATCGGAGTCACCTAGTGCAG | 3480 fluorescence intensity (a.u.)
35 | ATGCGCCCATGCACTCCACGTAGCTAGCTAAGACGCGCCGCGGAGTCACCTAGTGCAG | 5650 fluorescence intensity (a.u.)
36 | CCTTGGTGTCTCCTGCCGCCCACGCACCCTCTTTCCCGTGCGGAGTCACCTAGTGCAG | 3660 fluorescence intensity (a.u.)
37 | AATAATTTTCTCATTTTCTTTAACAGAAGATGACAATGCACGGAGTCACCTAGTGCAG | 34800 fluorescence intensity (a.u.)
38 | TCCCTTTCTGACGTGTGCTCATCCGACGCGAGGCTCCCGCCGGAGTCACCTAGTGCAG | 12800 fluorescence intensity (a.u.)
39 | TCTCCATCCTGCTAGCAGAGGTGGCGCCGGCGTCCTCCTGCGGAGTCACCTAGTGCAG | 3280 ± 140 fluorescence intensity (a.u.)
40 | GCATTTGCACTTGTAGGCGTGTGTTTTATGACACATTCTACGGAGTCACCTAGTGCAG | 3680 fluorescence intensity (a.u.)
41 | GGAGATGAGGTGGGAGGTGGATTTGGTGTTGTTCAAGACCCGGAGTCACCTAGTGCAG | 4420 fluorescence intensity (a.u.)
42 | AAATACAACGGAAACGTAATGACGCTACGATAATCTATCTCGGAGTCACCTAGTGCAG | 3730 fluorescence intensity (a.u.)
43 | TGTCCAGATTTGTAGTACTAGAATGTGTCATATCCCGTTACGGAGTCACCTAGTGCAG | 7020 fluorescence intensity (a.u.)
44 | TGTGTACAGAAAGTTGTCACCATCCAACACGTGAACTTTCCGGAGTCACCTAGTGCAG | 4030 fluorescence intensity (a.u.)
45 | AGATTTTGAATTCGTAGCTCTAGCCTACGTGACACTCTGACGGAGTCACCTAGTGCAG | 3200 fluorescence intensity (a.u.)
46 | GATTAGACCCGCGGGCGCGGTGAGTTGGACGTGTGGTCCTCGGAGTCACCTAGTGCAG | 3580 fluorescence intensity (a.u.)
47 | TGGGTCCCACGCAATAGTGGACCTGATGAATTGCAGGATTCGGAGTCACCTAGTGCAG | 41100 fluorescence intensity (a.u.)
48 | CCCTCGAGCTTTTAGCCCCGTGACGTCGCAGTCCTCCAAGCGGAGTCACCTAGTGCAG | 9630 fluorescence intensity (a.u.)
49 | AAATACGTCTCACTAACTGAAGTACGTGTAAATTGAGCCCCGGAGTCACCTAGTGCAG | 3510 fluorescence intensity (a.u.)
50 | CCTCCTCCAAGTCTGACCGTGCGCCGCGCGTGTCGTACGTCGGAGTCACCTAGTGCAG | 3320 fluorescence intensity (a.u.)
51 | AAAGGCCTACAAAGTTTGCGTTCTTGAGAGAAAGAGGGTGCGGAGTCACCTAGTGCAG | 4230 fluorescence intensity (a.u.)
52 | AAGAACCGGGCGGCCGATCCGGTGGCCTCGCAGGAGGCGACGGAGTCACCTAGTGCAG | 28500 fluorescence intensity (a.u.)
53 | ACTGGCGGTTGCCCTCGCACATGTCGTGGTAGTAGCTGTGCGGAGTCACCTAGTGCAG | 3340 fluorescence intensity (a.u.)
54 | CCACTCCGTACCGGCCGCGCCATGGATTCCACGCGGTGGCCGGAGTCACCTAGTGCAG | 3470 fluorescence intensity (a.u.)
